{
  "source": "PubChem BioAssay AID1347423",
  "about": "(Functional Genomics Laboratory (NCATS/FGL), 2020)",
  "note": "Among all 52,000 sequences or so, about 210 (0.4%) were called active.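 The calls were made as follows: active = gene whose silencing raises cell survival under the drug, median off-target-corrected z-score across its silencing RNAs 2 or more; inactive = the rest.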 The list shows a part of the results.",
  "data": [
    {"assay": "Resistance to Poly (ADP-Ribose) Polymerase inhibitor: Gene Identification via Genome-wide siRNA Screen", "settings": "mouse BRCA2 R2336H ES cells, olaparib, CellTiter-Glo viability; stronger effect = higher value", "procedure,_shortened": "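Mouse BRCA2 R2336H ES cells were reverse-transfected with siRNA (20 nM final), treated at 48 h with 500 nM olaparib, and read by CellTiter-Glo after 72 h. Scores: MAD-based z per siRNA, median per gene, seed off-target correction.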", "values": [
      {"sequence": "GGACACCAGUACCUGAAACTT against 9330133O14Rik", "z-score": "inactive: -0.158"},
      {"sequence": "GGAUCAUUAGCAAACACAATT against Capn1", "z-score": "inactive: 3.16"},
      {"sequence": "CCAGUACCUCAAUAUCAAATT against Lsm2", "z-score": "inactive: -0.455"},
      {"sequence": "GGAGAAAGAGAUUCCUAUUTT against 1810015M01Rik", "z-score": "inactive: 0.865"},
      {"sequence": "CCAUUUUAGACUACAUCCATT against 1200013P24Rik", "z-score": "inactive: 0.0214"},
      {"sequence": "GGGAAACAUCCUCAGGGAUTT against D1Ucla4", "z-score": "inactive: -0.536"},
      {"sequence": "GCUGACCUUUGUAAGUUAUTT against Ttc17", "z-score": "inactive: -0.043"},
      {"sequence": "CCAAGAGAACUAUUCAGUUTT against Tuba8", "z-score": "inactive: -0.0512"},
      {"sequence": "GGUCAGUCGUAUGAAAUCCTT against Tcfcp2l1", "z-score": "inactive: 2.87"},
      {"sequence": "GCUGAUAACAGACAUCAUCTT against Pitpnm2", "z-score": "inactive: -0.0692"},
      {"sequence": "CGGUGUUUGAAAUCGUGCATT against Dgcr6", "z-score": "inactive: 2.4"},
      {"sequence": "GGCUCAUGACCACCAAAACTT against 2600002E23Rik", "z-score": "inactive: 1"},
      {"sequence": "GGGUAGUGGCAGAUUUGGATT against 2610042O14Rik", "z-score": "inactive: 0.521"},
      {"sequence": "GGACCAAAGAUGCAUCAGUTT against Zfyve16", "z-score": "inactive: -1.18"},
      {"sequence": "GGAUGUGUUGUCUUUGGAUTT against A230063L24Rik", "z-score": "inactive: -0.753"},
      {"sequence": "GGUUCUGGAUUUCUGUUUUTT against N28178", "z-score": "inactive: 0.188"},
      {"sequence": "GCUUCAUCGCAUGAACCGATT against Rabggtb", "z-score": "inactive: -0.827"},
      {"sequence": "GGCACUCCAUAGUGAUUUCTT against 5730522E02Rik", "z-score": "inactive: 0.8"},
      {"sequence": "CCAAUGCUUCGUGAAAGACTT against Eras", "z-score": "inactive: -2.32"},
      {"sequence": "AAUCUUUUCGUGAAGGCACTT against BC049807", "z-score": "inactive: 0.404"},
      {"sequence": "GGUUCCAAGUCUAGUGGUGTT against Hn1", "z-score": "inactive: -0.0597"},
      {"sequence": "GGAAUAUGCUGUCAAGAUCTT against Mknk2", "z-score": "inactive: 0.678"},
      {"sequence": "GGAUAAAGGAAAAGAAACATT against Rcvrn", "z-score": "inactive: -1.59"},
      {"sequence": "GGCGUGAACCAAACAGACUTT against Calcrl", "z-score": "inactive: -0.694"},
      {"sequence": "GCCGGUGAAUAAUCAUGCUTT against Nrn1", "z-score": "inactive: 0.787"},
      {"sequence": "GGCAUUCCAGUAAAGGAGCTT against Fbxw4", "z-score": "inactive: 0.019"},
      {"sequence": "GCCAAGUAAAACCAAAUGUTT against D18Ertd653e", "z-score": "inactive: -0.11"},
      {"sequence": "GGAAAGCAAGUCGUAAGCCTT against Mrps10", "z-score": "inactive: 1.19"}
    ]}
  ]
}
